This assay in a line: qHTS Assay for Lipid Storage Modulators in Drosophila S3 Cells.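 For cell number change: cells counted by Cell Tracker Red CMTPX staining in the red channel.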 The settings on record: BODIPY lipid droplet fluorescence, 18-24 h; for cell number change: measured here: cell count max response, cells fed with added oleic acid. A digest of the protocol:
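Drosophila S3 cells got compounds at several concentrations plus oleic acid (400 uM solution). Laser-scanning cytometry with 488 nm excitation read lipid droplets at 500-530 nm and cells at 575-640 nm. Percent activity was relative to 20 uM Triacsin C.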

The mark [1] stands for this setting: measured here: cell number channel AC50, cells fed with added oleic acid.
Setting [2] is: measured here: lipid fluorescence (Fed channel) AC50, cells fed with added oleic acid.

Here are results for 52 compounds from PubChem BioAssay AID2685 (National Center for Advancing Translational Sciences (NCATS), 2010).

The other results are listed elsewhere or left out. Further columns of the screen follow, without active or inactive calls. Compounds called inactive in the main read-out are mostly missing here. Potencies come from curve fits of mixed quality, noted in brackets.

In the case of `O=C(O)c1ccc(NS(=O)(=O)c2cc(Cl)sc2Cl)cc1`, the cell number change was -12.7%.
In the case of `CC(=O)Nc1ccc(NC(=O)c2ccccc2Nc2ccccc2)cc1`, the cell number change was found to be 9.58%.
For `COc1ccc(-c2cc(C#N)nc(Oc3ccc(Cl)cc3)n2)cc1`, the cell number change was -31.8%. For the same compound, under setting [1], the AC50 is 4.61 µM [falling, full curve, poor fit]. Moreover, the half-maximal activity concentration (AC50) under setting [2] was 2.31 µM [falling, full curve].
Consider `CCCN(CCC)S(=O)(=O)c1ccc(C(=O)NCc2n[nH]c(=S)n2-c2ccc(Cl)c(Cl)c2)cc1`, for which the cell number change is -9.23%. Besides, the concentration at half-maximal activity (AC50) under setting [1] is 0.00517 µM [rising, full curve, poor fit]. Further, under setting [2], the half-maximal activity concentration (AC50) was 0.184 µM [rising, single point].
`COCCCNC(=O)C1CCCCN1S(=O)(=O)c1ccc(F)cc1` (stereo unspecified): the cell number change came to 4.31%.
On to `COc1ccc(CN2CCNC(=O)C2CC(=O)NCCSc2nccn2C)c(OC)c1` (stereo unspecified), for which the cell number change came to 7.44%. The AC50 under setting [2] is 4.61 µM [falling, full curve, poor fit].
For `O=C(O)c1ccc(/C=N/N2CCN(C3c4ccccc4-c4ccccc43)CC2)cc1`, the AC50 under setting [2] is 2.91 µM [rising, single point].
Turning to `CC(C)n1nnnc1SCC(=O)N1CCN(C(=O)c2ccco2)CC1`, the cell number change was -16.9%. The AC50 under setting [2] is 16.4 µM [falling, partial curve].
As for `CC(C)CCNC(=O)Nc1ccc2c(c1)N(C)C(=O)CS2`, the cell number change is -17%.
Take `Cc1ccc(/C=N/NC(=O)c2cc(-c3ccccc3)nc3ccccc23)o1`: the cell number change is -5.9%. Also, the concentration at half-maximal activity (AC50) under setting [1] is 4.61 µM [falling, single point].
For `CCC1CCCCN1C(=O)N[C@@H](CCSC)C(=O)OC` (stereo partly specified), the cell number change was -27.4%. Besides, the half-maximal activity concentration (AC50) under setting [2] was 4.11 µM [falling, full curve].
In the case of `CCN1CCc2nc(NC(=O)CC(c3ccccc3)c3ccccc3)sc2C1`, under setting [2], the half-maximal activity concentration (AC50) was 29.1 µM [falling, partial curve, poor fit].
In the case of `O=C1NC2(CCCCC2)C(=O)N1/N=C/c1ccccc1Br`, the cell number change came to 9.04%.
Turning to `CC(C)CNS(=O)(=O)c1ccc(S(=O)(=O)N2CCN(C3CCCC3)CC2)cc1`, the cell number change stood at 5.41%. Further, under setting [2], the AC50 was 6.51 µM [rising, single point].
Turning to `O=C1C=C(N2CCOCC2)c2ccccc2C1=O`, the AC50 under setting [2] is 1.3 µM [falling, full curve].
`CN(Cc1ccccc1)C(=C(Cl)Cl)/C(=C1/NCCN1C)[N+](=O)[O-]`: the cell number change is -46.1%. Besides, under setting [1], the half-maximal activity concentration (AC50) was 16.4 µM [falling, single point]. Besides, under setting [2], the half-maximal activity concentration (AC50) was 29.1 µM [falling, single point].
For `CC(=O)Nc1ccc(-c2nnn(CC(=O)c3ccccc3)n2)cc1Cl`, the cell number change is 31.6%. Under setting [1], the AC50 was 25.9 µM [rising, single point].
For the compound `C/C(=N\NC(=S)NC1CCCCC1)c1ccccc1`, the cell number change is -4.03%. In addition, the AC50 under setting [2] was 32.6 µM [rising, single point].
For the compound `O=C1CCC/C1=C\c1ccccc1`, the cell number change was -17%. Further, the AC50 under setting [2] was 1.84 µM [falling, partial curve].
Consider `COC(=O)C1(O)CC(C(C)C)=NN1C(=O)c1ccccc1` (stereo unspecified), for which the cell number change was 10.4%. Besides, under setting [1], the AC50 is 0.731 µM [rising, partial curve, poor fit].
Consider `Cc1ccc(CNc2nc3ccccc3n3nnnc23)cc1`, for which the cell number change was -4.8%. In addition, the concentration at half-maximal activity (AC50) under setting [2] is 0.184 µM [rising, full curve, poor fit].
Regarding `Cc1cccc(N(C(=O)CNC(=O)c2ccco2)C(C(=O)NC2CCCCC2)c2cccnc2)c1` (stereo unspecified), the cell number change amounted to 1.3%.
With `O=C(N/N=C/c1c[nH]c2ccccc12)c1ccncc1`, the cell number change is -40.3%. For the same compound, the concentration at half-maximal activity (AC50) under setting [1] was 0.58 µM [falling, full curve].
As for `NS(=O)(=O)c1cc(C(=O)Nc2ccc3c(c2)OCCCO3)ccc1Cl`, the cell number change is -18.4%.
In the case of `CCOc1cccc(/C=C/c2ccc3cccc(O)c3n2)c1O`, the cell number change is -17.2%. Under setting [2], the AC50 was 32.6 µM [falling, single point].
Consider `Cc1cc(C)cc(OCC(O)CN2CCN(C(=O)c3ccco3)CC2)c1` (stereo unspecified), for which the cell number change is -2.78%.
Turning to `O=C(CCCN1C(=O)NC2(CCCC2)C1=O)N1CCN(S(=O)(=O)c2ccccc2)CC1`, the cell number change is -13.5%. The AC50 under setting [2] is 0.00461 µM [falling, full curve, poor fit].
Regarding `CC(Oc1ccc(Cl)cc1Cl)C(=O)NC1=NN(c2ccccc2)C(=O)C1` (stereo unspecified), the cell number change is -4.69%. The AC50 under setting [2] was 23.1 µM [falling, partial curve].
For the compound `COc1ccc(CN(CC(=O)NCC2CCCO2)C(=O)CNS(=O)(=O)c2ccccc2)cc1` (stereo unspecified), the cell number change is -8.57%.
For the compound `CC(C)(C)NCC(O)Cn1cc(C=O)c2ccccc21` (stereo unspecified), the cell number change was -11.4%. The AC50 under setting [1] is 0.082 µM [falling, full curve, poor fit]. Besides, the AC50 under setting [2] is 0.116 µM [falling, full curve, poor fit].
As for `CSc1cccc(NC(=O)CCC(=O)O)c1`, the cell number change was -35.1%. Moreover, the AC50 under setting [1] is 29.1 µM [falling, single point]. Also, the AC50 under setting [2] was 32.6 µM [falling, single point].
For `O=C(NC(=S)Nc1ccccc1N1CCCC1)c1ccccc1Br`, the cell number change was found to be 35%. Further, the half-maximal activity concentration (AC50) under setting [1] was 29.1 µM [rising, single point]. Moreover, the AC50 under setting [2] was 2.91 µM [falling, partial curve].
Take `CC(=O)Nc1sc2c(c1C#N)CCCC2`: the cell number change stood at 0.129%. Also, under setting [2], the AC50 was 25.9 µM [rising, single point].
With `COC(=O)c1c(NC(=O)CCc2ccc(C)o2)sc(C)c1C`, the cell number change was -0.811%. Besides, the half-maximal activity concentration (AC50) under setting [2] was 2.06 µM [rising, partial curve].
Turning to `CC(C)N(Cc1ccccc1)C(=O)CCc1ccccc1`, the cell number change is -1.92%. Moreover, the AC50 under setting [1] is 0.164 µM [falling, partial curve, poor fit].
Consider `CS/C(N)=N/S(=O)(=O)c1ccc(NC(C)=O)cc1`, for which the cell number change is -17.3%. The AC50 under setting [2] was 0.13 µM [falling, full curve, poor fit].
With `O=C(CCc1ccccc1)Nc1ncc2c(n1)CCCC2=O`, the cell number change was determined as 2.99%. Moreover, the half-maximal activity concentration (AC50) under setting [2] is 0.206 µM [rising, full curve].
Consider `CC1CCCN(C(=O)CCc2ccccc2)C1` (stereo unspecified), for which the cell number change was 3.84%. Also, under setting [2], the AC50 was 1.3 µM [rising, partial curve].
`N/C(=N\OC(=O)/C=C/c1ccccc1Cl)c1ccncc1`: the AC50 under setting [1] was 6.51 µM [rising, single point].
As to `COc1ccc(N2C(=O)C(Cl)=C(N3CCCC(C)C3)C2=O)cc1` (stereo unspecified), the cell number change stood at 3.32%. The concentration at half-maximal activity (AC50) under setting [2] is 1.3 µM [rising, full curve, poor fit].
Turning to `O=C(COC(=O)/C=C/c1cccc(C(F)(F)F)c1)NCc1ccco1`, the half-maximal activity concentration (AC50) under setting [2] was 4.11 µM [rising, full curve, poor fit].
With `O=C(N/N=C\c1ccc([N+](=O)[O-])o1)c1cncc(Br)c1`, the cell number change was -30.7%. Moreover, under setting [1], the AC50 was 1.64 µM [falling, partial curve, poor fit]. In addition, the AC50 under setting [2] was 29.1 µM [falling, single point].
With `CCN1C(=O)CSC1=Nc1ccc(Cl)c(Cl)c1`, the cell number change is -28%. Moreover, under setting [2], the AC50 is 20.6 µM [falling, single point].
In the case of `CCc1nc(SCC(=O)Nc2cccc3ccccc23)[nH]c(=O)c1C`, the cell number change was -10.9%.
As to `COc1ccc(-c2cn[nH]c2-c2ccc(OCc3ccc([N+](=O)[O-])cc3)cc2O)cc1`, the cell number change is -57.9%. Also, the AC50 under setting [1] is 16.4 µM [falling, single point]. The concentration at half-maximal activity (AC50) under setting [2] is 16.4 µM [falling, partial curve].
Take `O=C1C2C3C=CC(C4CC34)C2C(=O)N1/N=C/c1ccc([N+](=O)[O-])s1` (stereo unspecified): the cell number change turned out to be 32.7%. Further, the concentration at half-maximal activity (AC50) under setting [1] is 0.92 µM [rising, full curve].
Turning to `O=C1/C(=C/c2cccs2)CCc2ccccc21`, the cell number change is -0.354%.
Turning to `Cc1ccc2ncc(S(=O)(=O)c3ccccc3)c(N3CCCCC3C)c2c1` (stereo unspecified), the cell number change was -5.69%. In addition, under setting [2], the half-maximal activity concentration (AC50) is 9.2 µM [falling, partial curve].
On to `CCS(=O)(=O)N1CCN(Cc2ccncc2)CC1`, for which the cell number change is -24.8%. Besides, the AC50 under setting [2] is 1.16 µM [falling, full curve].
Regarding `O=C(CCCc1c[nH]c2ccccc12)N1CCCCCC1`, the cell number change is -13.7%. Further, the AC50 under setting [2] is 0.00517 µM [falling, full curve, poor fit].
For the compound `c1cncc(Nc2nc(-c3cccs3)cs2)c1`, the concentration at half-maximal activity (AC50) under setting [1] is 6.51 µM [rising, single point] and the AC50 under setting [2] is 6.51 µM [rising, single point].
In the case of `CCc1nc(NCCN)c(C#N)c2c1CSC(C)(C)C2`, the cell number change was found to be 99.2%. For the same compound, under setting [1], the AC50 was 29.1 µM [rising, single point].
